From US11357817B2, “Immunoproteasome inhibitor” (The Regents of the University of California, priority 2017, dated 2022)
Some results were stated once for a whole list of compounds, not compound by compound.

Test system: HepG2 cells
Assay: HepG2 cytotoxicity assay
Format: cell-based, human
Settings: D-amino acid at P3 in place of L-Val of analog 1
Method: The liver-stage and HepG2 toxicity assays were performed as previously reported (35). Briefly, HepG2-A16-CD81EGFP, human hepatocarcinoma HepG2 cells stably transformed to express the tetraspanin CD81 receptor (36, 37) and thus susceptible to P. berghei infection, were cultured at 37° C. in 5% CO2 in DMEM (Life Technologies, Calif.) supplemented with 10% FBS, 0.29 mg/ml glutamine, 100 unit penicillin and 100 μg/ml streptomycin. […]
An. stephensi mosquitoes, infected with P. berghei-luciferase, were provided by the New York University Insectary. P. berghei-luciferase sporozoites were freshly dissected from the infected A. stephensi mosquito salivary glands, filtered twice through a 20 μm nylon net filter using Steriflip Vacuum-Driven Filtration System (Millipore), counted in a hemocytometer, and then adjusted to final concentration 200 sporozoites per μl in the assay media. […] After incubation at 37° C. for 48 hours the exoerythrocytic growth and HepG2-A16-CD81EGFP cell viability were quantified by a bioluminescence measurement.
The HepG2 cytotoxicity was assessed by removing the media through an inverted spin of the plates at 150 g for 30 s and addition of 2 μL of CellTiterGlo reagent (Promega diluted 1:2 with deionized water) per well using the MicroFlo liquid handler (BioTek). […]

SMILES | reduced toxicity
CCCCCC(=O)N[C@@H](C(=O)N[C@@H](CCCC)C(=O)N[C@@H](CC(C)C)C(=O)[C@@]1(C)CO1)C(C)C [Analog 18, (S)-2-((R)-2-hexanamido-3-methylbutanamido)-N—((S)-4-methyl-1-((R)-2-methyloxiran-2-yl)-1-oxopentan-2-yl)hexanamide] | up to 100 fold
CCCCCC(=O)N[C@H](Cc1c[nH]c2ccccc12)C(=O)N[C@@H](CCCC)C(=O)N[C@@H](CC(C)C)C(=O)[C@@]1(C)CO1 [Analog 19, (S)-2-((R)-2-hexanamido-3-(1H-indol-3-yl)propanamido)-N—((S)-4-methyl-1-((R)-2-methyloxiran-2-yl)-1-oxopentan-2-yl)hexanamide] | up to 100 fold
